From publication PMC10709007, “GPR162 is a beta cell CART receptor” (iScience, 2023)
No constants are given. Whether binding was seen depends on the method and setting. In cells and extracts the contact can be indirect.

Assays:
[1] = target: T1, GIP receptor (rat (endogenous in INS-1 832/13)) (UniProt P43219); experiment: proximity ligation; INS-1 832/13 cells incubated with 10^-7 M rat CARTp55-102 for 5 min at 37°C, fixed, permeabilised; DuoLink Goat/Rabbit with anti-CART and an anti-receptor antibody; control or Gpr162 siRNA (90% lower CART-GPR162 signal after KD); only the binder purified
T1 sequence: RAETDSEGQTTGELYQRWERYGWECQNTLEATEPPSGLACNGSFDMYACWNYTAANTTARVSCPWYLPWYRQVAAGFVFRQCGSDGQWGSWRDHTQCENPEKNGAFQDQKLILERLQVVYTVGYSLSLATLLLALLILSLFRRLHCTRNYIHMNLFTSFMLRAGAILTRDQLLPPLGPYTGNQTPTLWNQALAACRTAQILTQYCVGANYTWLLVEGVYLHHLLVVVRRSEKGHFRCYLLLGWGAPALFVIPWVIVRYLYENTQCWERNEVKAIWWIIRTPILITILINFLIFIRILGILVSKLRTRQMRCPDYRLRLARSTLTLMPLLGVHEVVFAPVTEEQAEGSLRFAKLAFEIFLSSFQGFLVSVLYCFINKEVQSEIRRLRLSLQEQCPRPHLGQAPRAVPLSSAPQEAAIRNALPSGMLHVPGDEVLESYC

[2] = target: T2, GPR160 (rat (endogenous in INS-1 832/13)) (UniProt Q66H29); experiment: as above
T2 sequence: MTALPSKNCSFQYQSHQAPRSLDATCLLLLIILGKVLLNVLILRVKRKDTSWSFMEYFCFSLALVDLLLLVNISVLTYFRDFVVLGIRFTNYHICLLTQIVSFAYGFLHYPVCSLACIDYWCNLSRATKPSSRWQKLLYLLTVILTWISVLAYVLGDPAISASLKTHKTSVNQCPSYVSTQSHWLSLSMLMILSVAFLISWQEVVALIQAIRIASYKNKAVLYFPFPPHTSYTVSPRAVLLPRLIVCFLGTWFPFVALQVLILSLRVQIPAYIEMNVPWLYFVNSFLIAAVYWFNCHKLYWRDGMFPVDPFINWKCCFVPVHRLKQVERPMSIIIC

- binding [1]: no binding (tested: 10^-7 M CARTp55-102)
- binding [2]: no binding (tested: 10^-7 M CARTp55-102)
Binder: IPIYEKKYGQVPMCDAGEQCAVRKGARIGKLCDCPRGTSCNSFLLKCL (peptide, UniProt P49192 82-129) [rat CARTp55-102]
